For two molecules, binding results are on record in PMC7057660.

Results are given in words; binding and its absence hold for the method and conditions named. In cells and extracts the contact can be indirect. Some entries that bind do so weakly or less than the wild type. Tags and fused reporters may be left off the sequences shown.

Assay [1] concerns the target T1, Drosophila parkin (dparkin), N-terminal FLAG tagged (Drosophila) (UniProt Q7KTX7).
T1 sequence: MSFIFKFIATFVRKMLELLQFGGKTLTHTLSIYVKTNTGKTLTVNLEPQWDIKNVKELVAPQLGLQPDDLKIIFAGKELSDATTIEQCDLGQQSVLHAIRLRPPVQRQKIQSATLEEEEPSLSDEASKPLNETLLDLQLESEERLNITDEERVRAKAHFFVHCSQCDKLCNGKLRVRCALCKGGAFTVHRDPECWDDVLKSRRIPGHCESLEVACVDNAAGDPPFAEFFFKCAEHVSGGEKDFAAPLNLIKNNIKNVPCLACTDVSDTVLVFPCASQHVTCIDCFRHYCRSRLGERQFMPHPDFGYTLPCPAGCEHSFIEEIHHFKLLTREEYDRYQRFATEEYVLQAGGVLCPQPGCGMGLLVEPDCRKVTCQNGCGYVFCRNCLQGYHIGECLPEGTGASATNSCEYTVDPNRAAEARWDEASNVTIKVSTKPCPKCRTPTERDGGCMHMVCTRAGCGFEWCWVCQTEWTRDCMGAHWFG
The assay can be described thus: co-IP; lysates of transfected Drosophila S2 cells (S2 lysis buffer: 50 mM Tris pH 7.5, 150 mM NaCl, 5 mM EDTA, 1% NP-40); overnight incubation with anti-FLAG M2 magnetic beads, three washes; blot for V5.

Assay [2] addresses T2, Drosophila PARIS (dPARIS), C-terminal V5-tagged (Drosophila) (UniProt Q9VR05).
T2 sequence: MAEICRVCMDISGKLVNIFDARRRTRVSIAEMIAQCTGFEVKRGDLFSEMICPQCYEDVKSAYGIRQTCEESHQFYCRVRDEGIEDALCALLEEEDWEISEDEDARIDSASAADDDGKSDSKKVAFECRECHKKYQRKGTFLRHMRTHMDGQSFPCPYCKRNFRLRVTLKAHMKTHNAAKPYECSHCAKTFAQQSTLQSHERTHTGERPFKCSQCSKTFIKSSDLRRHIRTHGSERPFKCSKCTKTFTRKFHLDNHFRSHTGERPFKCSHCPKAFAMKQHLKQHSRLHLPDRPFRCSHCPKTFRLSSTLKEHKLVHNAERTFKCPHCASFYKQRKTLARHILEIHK
The assay can be described thus: co-IP; reciprocal: lysates of transfected Drosophila S2 cells (S2 lysis buffer: 50 mM Tris pH 7.5, 150 mM NaCl, 5 mM EDTA, 1% NP-40); overnight incubation with anti-V5-tag mAb magnetic beads, three washes; blot for parkin.

B1: Drosophila PARIS (dPARIS), C-terminal V5-tagged (protein, UniProt Q9VR05 1-346)
chain: MAEICRVCMDISGKLVNIFDARRRTRVSIAEMIAQCTGFEVKRGDLFSEMICPQCYEDVKSAYGIRQTCEESHQFYCRVRDEGIEDALCALLEEEDWEISEDEDARIDSASAADDDGKSDSKKVAFECRECHKKYQRKGTFLRHMRTHMDGQSFPCPYCKRNFRLRVTLKAHMKTHNAAKPYECSHCAKTFAQQSTLQSHERTHTGERPFKCSQCSKTFIKSSDLRRHIRTHGSERPFKCSKCTKTFTRKFHLDNHFRSHTGERPFKCSHCPKAFAMKQHLKQHSRLHLPDRPFRCSHCPKTFRLSSTLKEHKLVHNAERTFKCPHCASFYKQRKTLARHILEIHK
Turning to B1, in assay [1], the binding entry is recorded as “binds”.

B2: Drosophila parkin (dparkin), N-terminal FLAG tagged (protein, UniProt Q7KTX7 1-482)
chain: MSFIFKFIATFVRKMLELLQFGGKTLTHTLSIYVKTNTGKTLTVNLEPQWDIKNVKELVAPQLGLQPDDLKIIFAGKELSDATTIEQCDLGQQSVLHAIRLRPPVQRQKIQSATLEEEEPSLSDEASKPLNETLLDLQLESEERLNITDEERVRAKAHFFVHCSQCDKLCNGKLRVRCALCKGGAFTVHRDPECWDDVLKSRRIPGHCESLEVACVDNAAGDPPFAEFFFKCAEHVSGGEKDFAAPLNLIKNNIKNVPCLACTDVSDTVLVFPCASQHVTCIDCFRHYCRSRLGERQFMPHPDFGYTLPCPAGCEHSFIEEIHHFKLLTREEYDRYQRFATEEYVLQAGGVLCPQPGCGMGLLVEPDCRKVTCQNGCGYVFCRNCLQGYHIGECLPEGTGASATNSCEYTVDPNRAAEARWDEASNVTIKVSTKPCPKCRTPTERDGGCMHMVCTRAGCGFEWCWVCQTEWTRDCMGAHWFG
On to B2, for which the binding result in assay [2] is recorded as “binds”.
